Measurements reported in PubChem BioAssay AID504764 (Drosophila RNAi Screening Center, 2011)
Assay: 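Genome-wide screen for regulators of Notch-driven gene expression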 (primary screen). System: Drosophila Kc167 cells. Reagent: long dsRNA against Drosophila genes. Duration: about 5 days (4 days dsRNA, then 24 h after transfection). Challenge: transfection of constitutively active membrane-tethered Notch lacking the extracellular domain, read 24 h later. Measurement: 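Firefly luciferase from an E(spl)m3 reporter with active Notch, plus control-promoter and uninduced reporter wells for normalisation; unnormalised counts, duplicate wells a and b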. Reading the numbers: induced reporter light, run 1, well a and induced reporter light, run 1, well b: higher = more light from the Notch target reporter with active Notch; control promoter light, run 1, well a and control promoter light, run 1, well b: higher = more light from the viral control promoter (cell number, transfection, viability); uninduced reporter light, run 1, well a: higher = more light from the Notch target reporter without active Notch. Rule for the call: 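Hit if the duplicate-averaged log2 ratio of induced to control-promoter light gives a plate-wise z beyond ±2, or induced to uninduced beyond ±1.8; weak-control or discordant-duplicate wells dropped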. Meaning of the calls: active = modifier hit (raised or lowered Notch signal); inactive = not a hit.
In all, the deposit lists about 22,000 reagents; this is an unselected part of those with a known target gene and a result. Over the whole deposit, 403 (1.9%) got an active call. 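Unnormalised raw counts per well; ratio z-scores behind the hit calls and whether each hit raises or lowers signal are not deposited.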 A number with no mark means an inactive call. No sequences are given here. The record does not give: the amount of reagent.

With knock-down of CG33630 [DRSC14546], the screen gave induced reporter light, run 1, well a = 44625; induced reporter light, run 1, well b = 47405; control promoter light, run 1, well a = 81290; control promoter light, run 1, well b = 53040; uninduced reporter light, run 1, well a = 3295. Knock-down of tsr [DRSC04718] resulted in: induced reporter light, run 1, well a = 1.56e5; induced reporter light, run 1, well b = 1.61e5; control promoter light, run 1, well a = 1.21e5; control promoter light, run 1, well b = 1.14e5; uninduced reporter light, run 1, well a = 11370. Golgin97 [DRSC06895] gave induced reporter light, run 1, well a = 2.26e5; induced reporter light, run 1, well b = 1.49e5; control promoter light, run 1, well a = 2.21e5; control promoter light, run 1, well b = 1.63e5; uninduced reporter light, run 1, well a = 15470. Against bip1 [DRSC11327], the entry reads induced reporter light, run 1, well a = 1.46e5; induced reporter light, run 1, well b = 1.49e5; control promoter light, run 1, well a = 85340; control promoter light, run 1, well b = 58320; uninduced reporter light, run 1, well a = 10642. grk [DRSC03540] scored induced reporter light, run 1, well a = 2.48e5; induced reporter light, run 1, well b = 2.26e5; control promoter light, run 1, well a = 2.18e5; control promoter light, run 1, well b = 1.57e5; uninduced reporter light, run 1, well a = 20565. After knock-down of Boh1 [DRSC14487], the record shows induced reporter light, run 1, well a = 1.63e5; induced reporter light, run 1, well b = 1.73e5; control promoter light, run 1, well a = 2.35e5; control promoter light, run 1, well b = 2.30e5; uninduced reporter light, run 1, well a = 11505.

With knock-down of CG15333 [DRSC18016], the record shows induced reporter light, run 1, well a = 1.42e5; induced reporter light, run 1, well b = 1.54e5; control promoter light, run 1, well a = 2.40e5; control promoter light, run 1, well b = 1.98e5; uninduced reporter light, run 1, well a = 11450. CG15333 [DRSC18153] gave induced reporter light, run 1, well a = 1.49e5; induced reporter light, run 1, well b = 1.39e5; control promoter light, run 1, well a = 2.10e5; control promoter light, run 1, well b = 2.33e5; uninduced reporter light, run 1, well a = 10588. Knock-down of AOX4 [DRSC15337] resulted in: induced reporter light, run 1, well a = 2.33e5; induced reporter light, run 1, well b = 2.43e5; control promoter light, run 1, well a = 2.15e5; control promoter light, run 1, well b = 2.01e5; uninduced reporter light, run 1, well a = 15330. After knock-down of mRpL51 [DRSC02200] the results were induced reporter light, run 1, well a = 1.76e5; induced reporter light, run 1, well b = 2.16e5; control promoter light, run 1, well a = 2.12e5; control promoter light, run 1, well b = 2.02e5; uninduced reporter light, run 1, well a = 13745. After knock-down of Adss [DRSC14162] the results were induced reporter light, run 1, well a = 1.24e5; induced reporter light, run 1, well b = 1.29e5; control promoter light, run 1, well a = 1.27e5; control promoter light, run 1, well b = 1.17e5; uninduced reporter light, run 1, well a = 11885. Against Upf3 [DRSC04092], the entry reads induced reporter light, run 1, well a = 1.30e5; induced reporter light, run 1, well b = 1.42e5; control promoter light, run 1, well a = 1.19e5; control promoter light, run 1, well b = 1.41e5; uninduced reporter light, run 1, well a = 8345.

An excerpt taken from the entries so far, for reference:
bip1 [DRSC11327]: induced reporter light, run 1, well a = 1.46e5; induced reporter light, run 1, well b = 1.49e5; control promoter light, run 1, well a = 85340; control promoter light, run 1, well b = 58320; uninduced reporter light, run 1, well a = 10642
grk [DRSC03540]: induced reporter light, run 1, well a = 2.48e5; induced reporter light, run 1, well b = 2.26e5; control promoter light, run 1, well a = 2.18e5; control promoter light, run 1, well b = 1.57e5; uninduced reporter light, run 1, well a = 20565
